Data from patent publication US20140213759 (published 2014).

Experiment: peptide synthesis
Conditions: whole synthesis

Substance | outcome | crude HPLC purity (run 1) [%] | crude HPLC purity (run 2) [%]
Boc-Ser(Bzl)-Phe-Pro-Ile-Leu-Pro-Pro-Glu(OBzl)-Glu(OBzl)-Tyr(Bzl)-Leu(OBzl) | it was not possible to collect the obtained precipitate |  | 
H-LW(Boc)V[Asn(Trt)]S(tBu)-NH2 |  | 79 | 49

Square brackets hold non-standard residues; d marks the D form. * marks the point of attachment. Asn(Trt) = N[C@@H](CC(=O)NC(c1ccccc1)(c1ccccc1)c1ccccc1)C(=O)O; Boc = CC(C)(C)OC(=O)*; tBu = CC(C)(C)*
